According to the supplement of paper PMC4604168 (melanoma cell lines):
Some of the results follow. Many values rest on one well or one pass, so single values are uncertain.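 The apoptosis fraction was the count of cleaved-PARP antibody-stained nuclei relative to all DNA-stained nuclei, imaged in 1,536-well plates. Screening doses were set so most cells survived, and baseline and induced cleaved-PARP levels vary greatly across cell lines.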

What follows are molecules tested on WM1716 (assay: cleaved PARP positive nuclei fraction relative to DMSO control; melanoma cells; higher = more apoptosis). Conditions: library dose: low library concentration; 72 h.

| Structure (SMILES) | cleaved PARP positive nuclei fraction |
| --- | --- |
| C[C@@H](N)c1ccc(C(=O)Nc2ccnc3[nH]ccc23)cc1 + Cc1cc([N+](=O)[O-])ccc1NS(=O)(=O)c1cc(Cl)ccc1Cl [FH535] (first compound 0.4 µM, partner dose 1 µM) | 97.8% |
| CS(=O)(=O)c1ccc(C(=O)Nc2ccc(Cl)c(-c3ccccn3)c2)c(Cl)c1 [vismodegib] + O=S(=O)(c1ccccc1)N(CC(F)(F)F)c1ccc(C(O)(C(F)(F)F)C(F)(F)F)cc1 [T0901317] (first compound 1 µM, partner dose 1.4 µM) | 174% |
| CCN(CC)CCNC(=O)c1c(C)[nH]c(/C=C2\C(=O)Nc3ccc(F)cc32)c1C [sunitinib] + COc1cc(N2CCC(N3CCN(C)CC3)CC2)ccc1Nc1ncc(Cl)c(Nc2ccccc2S(=O)(=O)C(C)C)n1 [NVP-TAE684] (first compound 0.4 µM, partner dose 0.08 µM) | 305% |
| CC1(C)CCC(c2ccc(Cl)cc2)=C(CN2CCN(c3ccc(C(=O)NS(=O)(=O)c4ccc(N[C@H](CCN5CCOCC5)CSc5ccccc5)c(S(=O)(=O)C(F)(F)F)c4)cc3)CC2)C1 + CC(C)CCN1c2nc(Nc3cc(F)c(O)c(F)c3)ncc2N(C)C(=O)C1C [BID1870] (first compound 0.4 µM, partner dose 0.2 µM) | 773% |
| C[C@@H](N)c1ccc(C(=O)Nc2ccnc3[nH]ccc23)cc1 + CN(NC(=O)CC(=O)NN(C)C(=S)c1ccccc1)C(=S)c1ccccc1 [STA4783] (first compound 0.4 µM, partner dose 0.006 µM) | 1040% |
| NC1(c2ccc(-c3nc4ccn5c(=O)[nH]nc5c4cc3-c3ccccc3)cc2)CCC1 + COc1cc(N2CCC(N3CCN(C)CC3)CC2)ccc1Nc1ncc(Cl)c(Nc2ccccc2S(=O)(=O)C(C)C)n1 [NVP-TAE684] (first compound 0.4 µM, partner dose 0.08 µM) | 226% |
| NC(=O)c1ccc(N(C(N)=O)c2c(F)cccc2F)nc1-c1ccc(F)cc1F + CCCCCCCCCCCC1=C(O)C(=O)C=C(O)C1=O [Embelin] (first compound 0.4 µM, partner dose 1.2 µM) | 145% |
| CS(=O)(=O)c1ccc(C(=O)Nc2ccc(Cl)c(-c3ccccn3)c2)c(Cl)c1 [vismodegib] + NCC(=O)Nc1ccc(-n2nc(C(F)(F)F)cc2-c2ccc3c(ccc4ccccc43)c2)cc1 [OSU03012] (first compound 1 µM, partner dose 1 µM) | 145% |
| NC1(c2ccc(-c3nc4ccn5c(=O)[nH]nc5c4cc3-c3ccccc3)cc2)CCC1 + O=S(=O)(c1ccccc1)N(CC(F)(F)F)c1ccc(C(O)(C(F)(F)F)C(F)(F)F)cc1 [T0901317] (first compound 0.4 µM, partner dose 1.4 µM) | 31% |
| NC(=O)c1ccc(N(C(N)=O)c2c(F)cccc2F)nc1-c1ccc(F)cc1F + CC(C)(C)c1cnc(CSc2cnc(NC(=O)C3CCNCC3)s2)o1 [SNS-032] (first compound 0.4 µM, partner dose 0.01 µM) | 256% |
| NC(=O)c1ccc(N(C(N)=O)c2c(F)cccc2F)nc1-c1ccc(F)cc1F + CO[C@@H]1[C@H](N(C)C(=O)c2ccccc2)C[C@H]2O[C@]1(C)n1c3ccccc3c3c4c(c5c6ccccc6n2c5c31)C(=O)NC4 [Midostaurin] (first compound 0.4 µM, partner dose 0.08 µM) | 80.5% |
| Cn1cnc2c(F)c(Nc3ccc(Br)cc3Cl)c(C(=O)NOCCO)cc21 [selumetinib] + COc1cc2c(Oc3ccc4[nH]c(C)cc4c3F)ncnc2cc1OCCCN1CCCC1 [cediranib] (first compound 0.015 µM, partner dose 0.4 µM) | 22.6% |
| C[C@]1(O)C[C@@H](c2nc(-c3ccc4ccc(-c5ccccc5)nc4c3)c3c(N)nccn32)C1 + c1cc(-c2cnn3cc(-c4ccc(OCCN5CCCCC5)cc4)cnc23)ccn1 [Dorsomorphin] (first compound 0.4 µM, partner dose 0.4 µM) | 123% |
| CC1(C)CCC(c2ccc(Cl)cc2)=C(CN2CCN(c3ccc(C(=O)NS(=O)(=O)c4ccc(N[C@H](CCN5CCOCC5)CSc5ccccc5)c(S(=O)(=O)C(F)(F)F)c4)cc3)CC2)C1 + NCC(=O)Nc1ccc(-n2nc(C(F)(F)F)cc2-c2ccc3c(ccc4ccccc43)c2)cc1 [OSU03012] (first compound 0.4 µM, partner dose 1 µM) | 501% |
